Source: the supplement of paper PMC8612539
Further values from the same series stand in other lists.

System: Escherichia coli
Assay: minimum inhibitory concentration (MIC)
Protocol: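 Broth microdilution MIC (Sensititre BOPO7F bovine plate, CLSI methods) of 19 antimicrobials against field isolates of P. multocida, M. haemolytica, H. somni (deep nasopharyngeal swabs) and E. coli, Enterococcus spp. (rectal swabs) from weaned dairy heifers. Incubation 16-24 h at 35 C. MIC is the lowest concentration preventing visible growth. Values with <= or > lie at the tested range limits. Trimethoprim-sulfamethoxazole is given as the trimethoprim component of a 1:19 mixture.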

Measured: minimum inhibitory concentration

CC[C@H]1OC(=O)C[C@@H](O)[C@H](C)[C@@H](O[C@@H]2O[C@H](C)[C@@H](O)[C@H](N(C)C)[C@H]2O)[C@@H](CCN2C[C@H](C)C[C@H](C)C2)C[C@@H](C)C(=O)/C=C/C(C)=C/[C@@H]1CO[C@@H]1O[C@H](C)[C@@H](O)[C@@H](OC)[C@H]1OC [Tilmicosin]
> 16 µg/mL: isolate (source animal id): 1 | isolate (source animal id): 2 | isolate (source animal id): 3 | isolate (source animal id): 4 | isolate (source animal id): 5 | isolate (source animal id): 6 | isolate (source animal id): 7 | isolate (source animal id): 17 | isolate (source animal id): 18 | isolate (source animal id): 19 | isolate (source animal id): 20 | isolate (source animal id): 21 | isolate (source animal id): 22 | isolate (source animal id): 23 | isolate (source animal id): 24 | isolate (source animal id): 25 | isolate (source animal id): 26 | isolate (source animal id): 27 | isolate (source animal id): 28 | isolate (source animal id): 29 | isolate (source animal id): 30 | isolate (source animal id): 31 | isolate (source animal id): 32 | isolate (source animal id): 33 | isolate (source animal id): 34 | isolate (source animal id): 35 | isolate (source animal id): 36 | isolate (source animal id): 37 | isolate (source animal id): 38 | isolate (source animal id): 39 | isolate (source animal id): 40 | isolate (source animal id): 41 | isolate (source animal id): 42 | isolate (source animal id): 43 | isolate (source animal id): 44 | isolate (source animal id): 45 | isolate (source animal id): 46 | isolate (source animal id): 47 | isolate (source animal id): 48 | isolate (source animal id): 49 | isolate (source animal id): 50 | isolate (source animal id): 51 | isolate (source animal id): 52 | isolate (source animal id): 53 | isolate (source animal id): 54 | isolate (source animal id): 55 | isolate (source animal id): 56 | isolate (source animal id): 57 | isolate (source animal id): 58 | isolate (source animal id): 59 | isolate (source animal id): 60 | isolate (source animal id): 61 | isolate (source animal id): 62 | isolate (source animal id): 63 | isolate (source animal id): 64 | isolate (source animal id): 65 | isolate (source animal id): 66 | isolate (source animal id): 67 | isolate (source animal id): 68 | isolate (source animal id): 69 | isolate (source animal id): 70 | isolate (source animal id): 71 | isolate (source animal id): 72 | isolate (source animal id): 73 | isolate (source animal id): 74 | isolate (source animal id): 75 | isolate (source animal id): 76 | isolate (source animal id): 77 | isolate (source animal id): 78 | isolate (source animal id): 79 | isolate (source animal id): 80 | isolate (source animal id): 81 | isolate (source animal id): 82 | isolate (source animal id): 83 | isolate (source animal id): 84 | isolate (source animal id): 85 | isolate (source animal id): 86 | isolate (source animal id): 87 | isolate (source animal id): 88 | isolate (source animal id): 89 | isolate (source animal id): 90 | isolate (source animal id): 91 | isolate (source animal id): 92 | isolate (source animal id): 93 | isolate (source animal id): 94 | isolate (source animal id): 95 | isolate (source animal id): 96 | isolate (source animal id): 97 | isolate (source animal id): 189 | isolate (source animal id): 190 | isolate (source animal id): 191 | isolate (source animal id): 192 | isolate (source animal id): 193 | isolate (source animal id): 194 | isolate (source animal id): 195 | isolate (source animal id): 196 | isolate (source animal id): 197 | isolate (source animal id): 198 | isolate (source animal id): 199 | isolate (source animal id): 200 | isolate (source animal id): 201 | isolate (source animal id): 202 | isolate (source animal id): 203 | isolate (source animal id): 204 | isolate (source animal id): 205 | isolate (source animal id): 206 | isolate (source animal id): 207 | isolate (source animal id): 208 | isolate (source animal id): 209 | isolate (source animal id): 210 | isolate (source animal id): 211 | isolate (source animal id): 212 | isolate (source animal id): 213 | isolate (source animal id): 214 | isolate (source animal id): 215 | isolate (source animal id): 216 | isolate (source animal id): 217 | isolate (source animal id): 218 | isolate (source animal id): 219 | isolate (source animal id): 220
